Experimental data from PubChem BioAssay AID1347423 (Functional Genomics Laboratory (NCATS/FGL), 2020).
The campaign covered roughly 52,000 sequences. About 210 (0.4%) were called active.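 The calls were made as follows: active = gene whose silencing raises cell survival under the drug, median off-target-corrected z-score across its silencing RNAs 2 or more; inactive = the rest.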 The list shows a part of the results.

Assay: Resistance to Poly (ADP-Ribose) Polymerase inhibitor: Gene Identification via Genome-wide siRNA Screen
Settings: mouse BRCA2 R2336H ES cells, olaparib, CellTiter-Glo viability; stronger effect = higher value
Outline: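 Mouse BRCA2 R2336H ES cells were reverse-transfected with siRNA (20 nM final), treated at 48 h with 500 nM olaparib, and read by CellTiter-Glo after 72 h. Scores: MAD-based z per siRNA, median per gene, seed off-target correction.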

Sequence	z-score
CCGACCUGAAACAGAUUAATT against Slc3a2	inactive: -1.31
GCUAUGAAGCCAUUAAGAATT against Zfp292	inactive: 1.49
GGGACAGAAUGUAAUUAAUTT against Olfr702	inactive: -0.879
GGUAGAAACAAAGAAAUAGTT against 9130023H24Rik	inactive: 0.0634
GCUUGCUGACCUGAAGUGATT against Krt1-17	inactive: -0.588
GGCUUACCUGAACUUUCUGTT against 2210008A03Rik	inactive: -0.43
GGAAAUCCGACCCUACAAATT against Taf12	inactive: 0.0112
GGAGACCUCCUCCAUGUUATT against Ptk6	inactive: -0.0563
GCGUACCUGGACAAUGUGUTT against Fmnl3	inactive: -1.6
GGCUCCUUUGGAGAAGUUUTT against 2610018G03Rik	inactive: 1.21
GGACAUGAUCCAUAUUGCATT against Eif3s6ip	inactive: -1.24
GGAACCUUGAAGCUUCUCUTT against Hrh3	inactive: -0.994
GGCAGAAACAGUCCUUGUUTT against Gfra4	inactive: -1.22
GAAGCAGGCCUGGGAUCUUTT against V1rb9	inactive: 0.0646
CCUUGAUGACGAAAACAUATT against Plekha2	inactive: 0.756
GGGAGUCCUUUUCAAACCATT against Cldn15	inactive: -0.345
GGAGCUGUGCAAGAGGAAATT against Wnt16	inactive: -0.493
GGCAAUAAGAAUCAGAAAATT against 6720480D16Rik	inactive: 1.24
GGGUUUGACAAAAUUGACCTT against Nudt6	inactive: -0.348
GGUGUGACGGUGCCUAUAUTT against D10Wsu102e	inactive: -3.4
GGUGCCUGAGGUUCUUUUUTT against Actrt1	inactive: 1.2
GGCAGGAGAUGGUAACUGCTT against Phc2	inactive: 0.169

Sequence	z-score
GCGACGUAAAUUUUGCUUUTT against Tlr5	inactive: 1.06
GGUUGAUGUGGAGAAGGUGTT against Gnaq	inactive: -1.03
GCACCUUAUGGGUAGAAAATT against Mtmr2	inactive: 0.738
GGAUCUAAGGAAGUUUCUGTT against Gfpt2	inactive: 2.22
GGCCCAACACAGAGAUACUTT against BC003236	inactive: 1.38
CAGUAGGUAUGUUCACUGGTT against Olfr1000	inactive: -0.681
GGUGUCAACCAGUUGUUUUTT against Nr2c1	inactive: 0.389
GGAUCUGGAAAAAGCAACUTT against 2410018G20Rik	inactive: -1.19
GGCUCAGUGUGCCAAACUGTT against Krt2-16	inactive: 2.21
GGACCUGUUUGAUUUGGUGTT against Nf2	inactive: -0.0653
GGACAGAGAACAAAUGACCTT against 4931417E11Rik	inactive: -0.199
CCUACUCUUUUCAUUGACCTT against Il8ra	inactive: 1.07
GGCAAGCUUGAAUAAUGAATT against D11Wsu99e	inactive: -0.0861
GCCAUUUAUUGAAACUCGCTT against Becn1	inactive: -0.982
CCAUAAAAUCAUCAUGAGATT against Apg12l	inactive: -0.501
GCAACAUGUAGGCAACAUCTT against 2310042M24Rik	inactive: 1.62
GGAUGAGCUCAAGAAGUCCTT against Snrpa	inactive: -1.3
CGUAUAUGAUCUGCAUCAUTT against Tex292	inactive: -0.252
GCCGUUUAUUCAUUGCACUTT against G431001I09Rik	inactive: -2.1
GGUCGAAAGAUUCCUGAAGTT against Hs3st1	inactive: -0.303
GGAGCUCAUGAUCGUCAAATT against 1700011A15Rik	inactive: 0.631
GGUCAAGAAAUGGGCAAGCTT against Arhgdib	inactive: 0.376

Laid out differently: entries from further up
GGUGUGACGGUGCCUAUAUTT against D10Wsu102e
  z-score: inactive: -3.4
CCAUAAAAUCAUCAUGAGATT against Apg12l
  z-score: inactive: -0.501
GCCGUUUAUUCAUUGCACUTT against G431001I09Rik
  z-score: inactive: -2.1
GGAGCUCAUGAUCGUCAAATT against 1700011A15Rik
  z-score: inactive: 0.631

(further entries)

Sequence	z-score
GGAUCUGAAGACAUGGAGATT against H2-M1	inactive: 0.582
GCCAUUACAAGAGCUGUUCTT against Myt1l	inactive: 2.09
GCUGGAGAAAGCGGAGAUATT against Hes7	inactive: -1.17
CGACCCAUCCAUCUUUAUCTT against Dlgh4	inactive: -0.709
GGGCCUAAUGAUUUGAUAUTT against 2410127E18Rik	inactive: -2.05
GGCCUUAGAACAAGGAAUATT against Cdk7	inactive: 0.382
GGCUUAGGGACUAUGAGGATT against Clecsf13	inactive: -0.489
GGCUGUCACGGAAAUGUAGTT against 1110014J01Rik	inactive: -0.228
GCAAGACCCGUCACAAUCUTT against Slc16a9	inactive: 1.92
CCUUCAGCAAUCUCAGAAATT against Olfr295	inactive: 1.92
GCCACAGUCCAAAUCUGCATT against BC003331	inactive: 0.967
GGUUAUGUCGCUAAGGAAATT against 3200001F09Rik	inactive: 0.101
GGCUGUGGAUUAAAUUAUCTT against Prkcn	inactive: 0.591
GGAUAGACAUCAGAAACUATT against Ranbp17	inactive: 0.209
GGGAGUUGGUGGAAUGCUUTT against Ech1	inactive: -0.663
GGACAAUGAUUUUCUGAUUTT against Sv2b	inactive: 0.422
GGCCUUUGGGAAAACAUGGTT against Zcchc14	inactive: 0.255
GCUCCAGCUUGCACUCUUGTT against 2410019G02Rik	inactive: 1.94
GGGUCAUCUGUAAUUUCCATT against Cst10	inactive: 1.51
GCCUUUUACUACCAUCCCGTT against Rbm9	inactive: 1.89
CCGAUGGAUGAUCAAGACATT against Plekhf1	inactive: 0.0852
GCCAAUAGUAACCAGCCAGTT against Prkab1	inactive: 1.4
